This is an account of results in patent US7662789B2CJSC, priority 2004, dated 2010).

A short description of the data set: general procedure: solution-phase peptide synthesis; N,N'-dicyclohexylcarbodiimide / N-oxybenzotriazol.

The star is where a group is joined. Cbz = O=C(OCc1ccccc1)*; OBn = c1ccc(CO*)cc1

Regarding Cbz-AE(OBn)D(OBn)R-OH, the step yield (coupling step) turned out to be 45%.
Turning to H-Ala-Glu-Asp-Arg (SEQ ID NO:1)-OH, the step yield (late stage modification step) was found to be 70%. Besides, where the note is “purification step, 220 nm”, the “final HPLC purity” value came out at 98.01%.
